Laboratory results reported in PubChem BioAssay AID2318 (National Center for Advancing Translational Sciences (NCATS), 2010).
The inconclusive results got no clear call from the source; some entries with a clear call stand among them for comparison. A potency beside an inconclusive call is a rough fit, not a confirmed value. Activity calls are given as the source filed them. The call rests on the fitted dose curve.

Test: Cycloheximide Counterscreen for Small Molecule Inhibitors of Shiga Toxin (Confirmatory)
Potency means the concentration at half of the fitted maximal effect.

Row | SMILES | Potency
1 | O=C(Cc1cccs1)Nc1nc(-c2ccc(F)c(F)c2)cs1 | inactive
2 | COc1ccc(C)cc1N1C(=N)/C(=C2/Nc3ccccc3S2)C(c2ccccc2)C1=O (configuration not stated) | inactive
3 | Cn1nccc1C(=O)Nc1sc2c(c1C#N)CCCC2 | inconclusive: 20 µM [activator, partial curve]
4 | O=C1C(Cl)=C(Nc2ccccc2)C(=O)c2ccccc21 | inconclusive: 4 µM [activator, full curve]
5 | C=CCNc1sc(C(=O)c2ccccc2)c(N)c1-c1nc2ccccc2s1 | inconclusive: 20 µM [activator, partial curve, poor fit]
6 | O=C(NCC(=O)N1CCN(c2ccccn2)CC1)c1ccc(Br)o1 | inactive
7 | Cc1ccc(C)n1-c1ccc(NC(=O)c2ccccc2)cc1 | inconclusive: 22.5 µM [activator, single point]
8 | COc1ccc(OCc2cccc(C(=O)O)c2)cc1 | active: 0.0318 µM
9 | CCCc1cc(=O)oc2cc(C)cc(OCC(=O)NCc3ccccn3)c12 | inactive
10 | CN(C(=O)c1ccc2c(=O)n3c(nc2c1)CCCCC3)c1ccccc1 | inactive
11 | Cc1c(C(=O)Nc2nc3ccccc3[nH]2)oc2ccc(Br)cc12 | active: 10 µM
12 | CC(=O)Nc1ccc(N2N=C(C)C(N=Nc3ccccc3)C2=O)cc1 (configuration not stated) | inconclusive: 22.5 µM [activator, partial curve, poor fit]
13 | O=C(Nc1ccc(/C=C/c2nc3ccccc3o2)cc1)c1ccc(F)cc1 | active: 2.25 µM
14 | COc1ccc(NC(=O)c2c(Cl)n(C)c3ccccc23)cc1 | active: 12.6 µM
15 | CSc1ccc(/C=C(\C#N)C(=O)NC2CCCCC2C)cc1 (configuration not stated) | inactive
16 | CCn1c(SCC(=O)Nc2cc(C)on2)nnc1-c1cccc(C)c1 | inactive

Row | SMILES | Potency
17 | CCOC(=O)c1ccc(NC(=O)Nc2ccn(C)n2)cc1 | inconclusive: 20 µM [activator, partial curve, poor fit]
18 | O=C(COC(=O)c1cncc(Br)c1)Nc1nc(-c2ccc(F)cc2)cs1 | inconclusive: 28.3 µM [activator, partial curve, poor fit]
19 | C=CCn1c(=S)[nH]c2cc(-c3ccccc3)sc2c1=O | inconclusive: 10 µM [activator, partial curve, poor fit]
20 | Nc1cc(N)nc(SCC(=O)Nc2ccc(Br)cc2Cl)n1 | inconclusive: 25.2 µM [activator, partial curve]
21 | Nc1ccc(C(=O)NC2CCSc3ccccc32)cc1[N+](=O)[O-] (configuration not stated) | inconclusive: 14.2 µM [activator, partial curve]
22 | O=C(Nc1ccccc1)c1ccccc1O | active: 22.5 µM
23 | Cc1noc(/C=C/c2ccco2)c1S(=O)(=O)N1CCC(C(=O)N(C)Cc2ccccc2)CC1 | inconclusive: 20 µM [activator, single point]
24 | O=C(Nc1ncc2c(n1)-c1ccccc1CC2)c1cccc(Cl)c1 | inconclusive: 25.2 µM [activator, partial curve, poor fit]
25 | COc1ccc(-c2cc(-c3ccccc3O)[nH]n2)cc1OC | active: 2.52 µM
26 | CCCC[C@@H]1C[C@H]1[C@@H](NC(=O)c1ccco1)c1ccc(Cl)cc1 | inactive
27 | O=C(/C=C/Nc1ccc(F)cc1F)c1ccco1 | active: 0.252 µM
28 | Cc1cccc(Cn2cc(SCC(=O)Nc3nccs3)c3ccccc32)c1 | inconclusive: 8.95 µM [activator, partial curve]
29 | CCOC(=O)Cc1csc(NC(=O)CSc2ncnc3c2cnn3-c2ccc(OC)cc2)n1 | inconclusive: 25.2 µM [activator, single point]
30 | O=C(NCc1ccccc1Cl)c1cnc2ccccc2n1 | inactive
31 | Cc1ccc(OCC(=O)Nc2nnn(C)n2)c(C)c1 | inconclusive: 31.8 µM [activator, partial curve, poor fit]
32 | Cc1sc(NC(=O)C2CCCC2)c(C#N)c1C | inactive

Sorted by length of the SMILES (low to high): some entries from above
Row | SMILES | Potency
27 | O=C(/C=C/Nc1ccc(F)cc1F)c1ccco1 | active: 0.252 µM
30 | O=C(NCc1ccccc1Cl)c1cnc2ccccc2n1 | inactive
31 | Cc1ccc(OCC(=O)Nc2nnn(C)n2)c(C)c1 | inconclusive: 31.8 µM [activator, partial curve, poor fit]
25 | COc1ccc(-c2cc(-c3ccccc3O)[nH]n2)cc1OC | active: 2.52 µM
24 | O=C(Nc1ncc2c(n1)-c1ccccc1CC2)c1cccc(Cl)c1 | inconclusive: 25.2 µM [activator, partial curve, poor fit]
29 | CCOC(=O)Cc1csc(NC(=O)CSc2ncnc3c2cnn3-c2ccc(OC)cc2)n1 | inconclusive: 25.2 µM [activator, single point]
23 | Cc1noc(/C=C/c2ccco2)c1S(=O)(=O)N1CCC(C(=O)N(C)Cc2ccccc2)CC1 | inconclusive: 20 µM [activator, single point]
